Measurements taken from the supplement of paper PMC4749390.
Structures can show the parent of a compound that is named as a salt. The list shows a part of the results. This data set is noisy: repeats of one test often differ as much as different tests do.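 JEG3 cells stably carry tetracycline-induced wild-type human LRH-1, a heavily sumoylated nuclear receptor. APOC3 and MUC1 are SUMO-sensitive transcripts, raised by SUMO-less LRH-1 or UBC9 knockdown, measured by RT-qPCR against TBP and DMSO controls. A robust Z-score above +2 or below -2 marked a primary hit before toxicity and TBP filtering.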

tested on: JEG3 expressing hLRH-1; assay: MUC1 transcript change (ddCt vs TBP and DMSO), Z-score over library; higher = higher MUC1 expression; conditions: 10 µM; time (hr): 24

Row | SMILES | MUC1 transcript change (Z-score)
1 | CC(C(=O)O)c1ccc(-c2ccccc2)c(F)c1 (centres undefined) [flurbiprofen] | 0.298
2 | CCCCCCOc1ccccc1C(N)=O [exalamide] | -0.466
3 | CO/N=C(\C(=O)N[C@@H]1C(=O)N2C(C(=O)OCOC(=O)C(C)(C)C)=C(/C=C\c3scnc3C)CS[C@H]12)c1csc(N)n1 [cefditorin pivoxil] | -0.811
4 | Cc1nc(COP(=O)(O)O)cc2c1[O][Mn][O]c1c(cc(COP(=O)(O)O)nc1C)CN(CC(=O)O)CCN(CC(=O)O)C2 [mangafodipir trisodium] | 0.277
5 | CN1CCN(C2=Nc3ccccc3Oc3ccc(Cl)cc32)CC1 [Loxapine succinate] | 0.646
6 | COc1ccc(CN2CCN(C(c3ccc(F)cc3)c3ccc(F)cc3)CC2)c(OC)c1OC [lomerizine hydrochloride] | -0.953
7 | CC(=O)Nc1ccccc1 [acetanilide] | 0.733
8 | COc1ccc(C2Sc3ccccc3N(CCN(C)C)C(=O)C2OC(C)=O)cc1 (centres undefined) [diltiazem hydrochloride] | 0.355
9 | CN1CCC[C@@H]1CCO[C@](C)(c1ccccc1)c1ccc(Cl)cc1 [clemastine] | -0.584
10 | C#C[C@]1(O)CCC2C3CCc4cc(O)ccc4C3CC[C@@]21C (some centres undefined) [ethinyl estradiol] | -0.639
11 | CC1(C)[C@@H]2CC[C@@]1(C)C(=O)C2 [camphor (1r)] | -0.41
12 | O=c1[nH]c(=O)n(C2C[C@@H](O)[C@@H](CO)O2)cc1F (some centres undefined) [floxuridine] | 0.253
13 | O=C1CC[C@@H](C(=O)O)N1 [pidolic acid] | -0.00148
14 | CCOc1ccccc1C(N)=O [ethenzamide] | -0.812
15 | CN/C(=C\[N+](=O)[O-])NCCSCc1ccc(CN(C)C)o1 [Ranitidine hydrochloride] | 0.378
16 | CC1(C)S[C@@H]2[C@H](NC(=O)[C@H](NC(=O)N3CCNC3=O)c3ccccc3)C(=O)N2[C@H]1C(=O)O [azlocillin sodium] | 0.339
17 | O=C(O)c1cn(C2CC2)c2cc(N3CCNCC3)c(F)cc2c1=O [ciprofloxacin] | -0.626
18 | CCCCCCCCCc1ccc(OCCOCCOCCOCCOCCOCCOCCOCCOCCO)cc1 [nonoxynol-9] | -0.705
19 | Nc1nc(/C(=C/CC(=O)O)C(=O)N[C@@H]2C(=O)N3C(C(=O)O)=CCS[C@H]23)cs1 [ceftibuten] | 0.385
20 | CC(NCCC(c1ccccc1)c1ccccc1)c1ccccc1 (centres undefined) [fendiline hydrochloride] | 0.504
21 | CN1C(C)(C)CCCC1(C)C [pempidine tartrate] | 0.362
22 | NC(N)=NCCCC(N)C(=O)O (centres undefined) [arginine hydrochloride] | 0.793
23 | C[N+](C)(C)CCCCCC[N+](C)(C)C [Hexamethonium dichloride] | 0.445
24 | CC(S)C(=O)NCC(=O)O (centres undefined) [tiopronin] | 0.236
25 | O=C(O)CCCCCCCC(=O)O [azelaic acid] | 0.0729

Row | SMILES | MUC1 transcript change (Z-score)
26 | CNC[C@H](O)c1ccc(O)c(O)c1 [adrenaline bitartrate] | 0.827
27 | CC(=O)NS(=O)(=O)c1ccc(NC(=O)c2ccccc2C(=O)O)cc1 [phthalylsulfacetamide] | 0.938
28 | CCN(CC)C(C)CN1c2ccccc2Sc2ccccc21 (centres undefined) [ethopropazine hydrochloride] | -0.0192
29 | C[N+](C)(C)CCO [choline chloride] | 0.355
30 | Oc1c(I)cc(Cl)c2cccnc12 [clioquinol] | 0.422
31 | NC[C@H]1O[C@H](O[C@H]2[C@H](O)[C@@H](O[C@H]3O[C@H](CO)[C@@H](O)[C@H](N)[C@H]3O)[C@H](N)C[C@@H]2N)[C@H](N)[C@@H](O)[C@@H]1O [becanamycin sulfate] | 0.49
32 | C#C[C@]1(O)CCC2C3CCC4=CC(=O)CC[C@@H]4C3CCC21CC (some centres undefined) [norgestrel] | -0.382
33 | Cc1cc(CC(C)CC(C)(C)C)n(O)c(=O)c1.NCCO (centres undefined) [piroctone olamine] | 2.48
34 | Nc1ccc(S(=O)(=O)Nc2cnc3ccccc3n2)cc1 [sulfaquinoxaline sodium] | 0.1
35 | OC[C@H]1O[C@H](O[C@]2(CCl)O[C@H](CCl)[C@@H](O)[C@@H]2O)[C@H](O)[C@@H](O)[C@H]1Cl [sucralose] | 0.0596
36 | CN(C)CC[C@@H](c1ccc(Cl)cc1)c1ccccn1 [dexchlorpheniramine maleate] | 0.774
37 | C=Cc1c(C)c2[n]3c1C=C1C(C)=C(CC)C4=[N+]1[Cu]31[n]3c(c(C)c(C(=O)O)c3=C(CC(=O)O)C3=[N+]1C(=C2)C(C)C3CCC(=O)O)=C4 (centres undefined) [chlorophyllide cu complex na salt] | 0.679
38 | Nc1nc2ccc(OC(F)(F)F)cc2s1 [Riluzole] | 0.179
39 | CN(C)N=Nc1[nH]cnc1C(N)=O [dacarbazine] | -0.156
40 | O=C(O)c1ccccc1Nc1cccc(C(F)(F)F)c1 [flufenamic acid] | -0.742
41 | Clc1ccc(CCC(Cn2ccnc2)Sc2c(Cl)cccc2Cl)cc1 (centres undefined) [butoconazole] | 1.13
42 | Cc1ccc(-c2cc(C(F)(F)F)nn2-c2ccc(S(N)(=O)=O)cc2)cc1 [celecoxib] | 0.329
43 | C[C@H]1OC(n2cc(F)c(=O)[nH]c2=O)C(O)[C@@H]1O (some centres undefined) [5-fluoro-5'-deoxyuridine] | 0.632
44 | COc1ccc2c(c1OC)C(=O)O[C@@H]2[C@H]1c2c(cc3c(c2OC)OCO3)CCN1C [noscapine hydrochloride] | 0.797
45 | CCOC(=O)O[C@]1(C(=O)COC(=O)CC)CC[C@H]2[C@@H]3CCC4=CC(=O)C=C[C@]4(C)[C@H]3[C@@H](O)C[C@@]21C [prednicarbate] | -0.685
46 | CNNCc1ccc(C(=O)NC(C)C)cc1 [procarbazine hydrochloride] | -0.819
47 | CC(=O)O[C@H]1CC2CCC3C(CC[C@@]4(C)C3C[C@H]([N+]3(C)CCCCC3)[C@@H]4OC(C)=O)[C@@]2(C)C[C@@H]1N1CCCCC1 (some centres undefined) [vecuronium bromide] | 0.207
48 | CO/N=C(\C(=O)N[C@@H]1C(=O)N2C(C(=O)O)=C(CSc3nnnn3C)CS[C@H]12)c1csc(N)n1 [cefmenoxime hydrochloride] | -0.0117
49 | C[C@H]1O[C@@H](O[C@H]2[C@@H](O)C[C@H](O[C@H]3[C@@H](O)C[C@H](O[C@H]4CC[C@@]5(C)[C@H](CC[C@@H]6[C@@H]5C[C@@H](O)[C@]5(C)[C@@H](C7=CC(=O)OC7)CC[C@]65O)C4)O[C@@H]3C)O[C@@H]2C)C[C@H](O)[C@@H]1O [digoxin] | -2.03
